Data reported in PubChem BioAssay AID1345085 (National Center for Advancing Translational Sciences (NCATS), 2018).
This list was built around the results that the source calls inconclusive (neither active nor inactive); the mix of calls is not that of the screen. Potencies beside an inconclusive call are fits to weak or partial responses and may not hold up. Activity calls are given as the source filed them. The call rests on the fitted dose curve; in most records, active means well fitted cell-killing curve with a large enough effect; inconclusive means small, poorly fitted or top-dose-only effect, or effect the other way; inactive means no such curve, though single readings can be large or run the other way.

Each compound was assayed on SKOV3 (assay: Confirmatory qHTS for gynecologic anti-cancer compounds from libraries of approved drugs and bioactive compounds). Conditions: gynecologic cancer cell panel viability, ATPlite luminescence, 48 h; series mostly up to 57.6 µM; activity change, negative = viability loss: at the top concentration.
Procedure, shortened: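 Seeding 1,000 cells per well preceded overnight (16 h) attachment, after which 48 h drug treatment across 57.5 uM–0.977 nM (11 points) was applied. Remaining cellular ATP, detected by ATPlite luminescence, defined IC50.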
Further: nearly all actives have a fitted effect of over 55% in size.
On the % scale 0 is the no-effect control and ±100 the full control effect; potency means the concentration at half of the fitted maximal effect.

Row | Structure (SMILES) | Potency | activity change, negative = viability loss
1 | COc1cc2c(NC3CCN(C(C)C)CC3)nc(C3CCCCC3)nc2cc1OCCCN1CCCC1 | active: 30.6 µM | 
2 | CN(C)/N=N/c1nc[nH]c1C(N)=O | inconclusive: 2.43 µM [rising, partial curve, poor fit] | 
3 | CCN1CCN(Cc2ccc(-c3cc4c(NC(C)c5ccccc5)ncnc4[nH]3)cc2)CC1 (stereo unspecified) | active: 17.2 µM | 
4 | Cc1ccc(C(=O)Nc2ccc(Oc3cc4cnn(C)c4cc3-c3cn[nH]c3)c(F)c2)c(=O)n1-c1ccc(F)cc1 | inconclusive: 9.68 µM [cytotoxic, full curve] | 
5 | CN(C[C@@H]1COCCO1)S(=O)(=O)Nc1ccc2ccc3ncc(-c4cnn(C)c4)cc3c(=O)c2c1 | inconclusive: 0.611 µM [rising, partial curve, poor fit] | 
6 | O=c1[nH]c(=O)n([C@H]2C[C@H](O)[C@@H](CO)O2)cc1F |  | inactive: -5.81%
7 | Nc1nc(Cl)nc2c1ncn2C1OC(CO)C(O)C1F (stereo unspecified) | active: 0.432 µM | 
8 | CC[C@H](CC#N)OC(=O)N[C@@H](C)c1cccc(NC(=O)Nc2ccc(-c3cnco3)c(OC)c2)c1 |  | inactive: -16.4%
9 | COc1cc(F)c(F)c(Nc2ccc(I)cc2F)c1NS(=O)(=O)C1(CC(O)CO)CC1 (stereo unspecified) | inconclusive: 3.43 µM [cytotoxic, partial curve] | 
10 | COC(=O)c1ccc2c(C(=Nc3ccc(N(C)C(=O)CN4CCN(C)CC4)cc3)c3ccccc3)c(O)[nH]c2c1 | inconclusive: 48.5 µM [cytotoxic, partial curve, poor fit] | 
11 | Cc1c(C)n(Cc2ccc(-c3ccccc3C(=O)O)cc2)c2ccc(C(=O)N[C@@H](C)c3ccc([N+](=O)[O-])cc3)cc12 |  | inactive: 27.9%
